Measurements from PubChem BioAssay AID540256 (National Center for Advancing Translational Sciences (NCATS), 2011).
Out of some 300,000 compounds screened, about 3,700 (1.2%) were called active. This list was built around the results that the source calls inconclusive (neither active nor inactive); the mix of calls is not that of the screen. The call rests on the fitted dose curve; tested in HEK293 cells. Potencies of inconclusive entries are doubtful fits and often do not repeat.

Test: qHTS for Inhibitors of binding or entry into cells for Lassa Virus; further: nearly all actives have a fitted effect of over 50% in size
Conditions: Lassa virus pseudotype entry inhibition, cell reporter; activity change, negative = inhibition: at 37.9 µM (top of the series) unless noted
On the % scale 0 is the no-effect control and ±100 the full control effect; potency means the concentration at half of the fitted maximal effect.

SMILES	Potency	activity change, negative = inhibition
CCn1c2ccccc2c2cc(NS(=O)(=O)c3ccccc3C)ccc21	inconclusive: 7.08 µM [inhibitor, partial curve]	
O=C(COc1ccccc1)N/N=C/c1ccc2c(c1)OCO2	inconclusive: 11.2 µM [inhibitor, partial curve, poor fit]	
NCCCCNCCCN	inconclusive: 6.51 µM [inhibitor, single point]	
COCCCNC(=O)Cn1c(=O)nc(-c2ccccc2)c2ccccc21		inactive: -10.1% [at 46.1 µM]
COC(=O)C1CN(C(=O)C(C)Oc2ccc(F)cc2)c2ccccc2O1 (stereo not given)		inactive: 7.34% [at 46.1 µM]
N#Cc1cc(Nc2c(N)nc[nH]c2=O)c([N+](=O)[O-])cc1C#N	inconclusive: 2.82 µM [inhibitor, full curve]	
Cc1ccnc(N2CCC(C(=O)Nc3ccc(Oc4ccccc4)cc3)CC2)n1		inactive: 2.29%
Cc1ccc(S(=O)(=O)/N=C2\C=C(Nc3ccc(O)cc3)C(=O)c3ccccc32)cc1	active: 2.82 µM	
Cc1ccc(-n2nc3c(=O)n(CC(=O)NCCC(C)C)nc(C)c3c2C)cc1		inactive: -9.43% [at 46.1 µM]
C(=C\c1nc(-c2ccccc2)no1)/c1ccccc1	inconclusive: 3.16 µM [inhibitor, full curve, poor fit]	
Cc1ccsc1/C=C1\CCc2ccccc2C1=O	inconclusive: 2.06 µM [inhibitor, full curve, poor fit]	
CCOC(=O)Nc1sc(=S)n(C)c1C	inconclusive: 16.4 µM [activator, partial curve, poor fit]	
O=C1OCc2cc(NC(=O)C3COc4ccccc4O3)ccc21 (stereo not given)		inactive: 12.7%
COc1ccc(N2CCN(Cc3nc4c(c(=O)[nH]c(=O)n4C)n3CC(C)C)CC2)cc1		inactive: 3.42% [at 46.1 µM]
COC(=O)[C@]12C[C@@H]3CCN(C(=O)N[C@@H]1c1ccccc1)[C@@]32C	inconclusive: 1.19 µM [inhibitor, single point]	
CC(=O)C1=C(C)OC(N)=C(C#N)C1c1ccncc1 (stereo not given)		inactive: -7.72%
Cc1ccc(F)cc1NC(=O)Cn1c(C)cc(C)c(C#N)c1=O		inactive: 12.9% [at 46.1 µM]
CCN(C(=O)CCC(=O)N(CC)c1ccccc1)c1ccccc1	inconclusive: 0.517 µM [inhibitor, full curve, poor fit]	
COc1ccc(C2=C(N3CCN(c4cccc(C)c4)C(C)C3)c3ccccc3C2=O)cc1 (stereo not given)	inconclusive: 17.8 µM [inhibitor, partial curve, poor fit]	
COc1ccccc1CNC(=O)c1ccc(-c2ccccc2Cl)o1	inconclusive: 14.6 µM [inhibitor, partial curve]	
O=C(Nc1cccn(Cc2c(Cl)cccc2Cl)c1=O)c1c(Cl)cccc1Cl	inconclusive: 5.8 µM [inhibitor, partial curve, poor fit]	
O=C(c1ccc(Br)cc1)C(CN1CCOCC1)c1ccccc1 (stereo not given)	inconclusive: 8.91 µM [inhibitor, partial curve, poor fit]	
CSc1nc(Oc2cccc(C(F)(F)F)c2)cc(C(F)(F)F)n1		inactive: 2.75%
Cc1ccc(S(=O)(=O)Oc2ccccc2/C=N/NC(N)=S)cc1	inconclusive: 1.03 µM [inhibitor, full curve, poor fit]	

SMILES	Potency	activity change, negative = inhibition
Cc1oc2ccc(O)c(CN3CCOCC3)c2c1C(=O)c1ccc(Cl)cc1	inconclusive: 32.6 µM [inhibitor, single point]	
C[C@@H](NC(=O)OC(C)(C)C)c1nnc(S(=O)(=O)Cc2ccccc2)o1	inconclusive: 35.5 µM [inhibitor, single point]	
Cc1ccc(SCCNC(=O)/C=C/c2ccccc2Cl)cc1	inconclusive: 3.66 µM [activator, single point]	
CC1CCN(c2nc3ccc(C(=O)NCc4ccccc4Cl)cc3s2)CC1	inconclusive: 25.1 µM [activator, partial curve, poor fit]	
C=CCNC(=S)N(Cc1ccccc1)Cc1ccccc1	inconclusive: 15.8 µM [inhibitor, single point]	
Cc1cccc(NC(=O)c2cccc3c2C(=O)c2ccccc2-3)c1	inconclusive: 10 µM [inhibitor, partial curve, poor fit]	
COc1cccc(NC(=O)CN(C)C(C)C(=O)NC(C)c2ccc(Cl)cc2Cl)c1 (stereo not given)		inactive: -7.28%
Cc1ccsc1S(=O)(=O)N1CCC(CO)(CC2CCCCO2)CC1 (stereo not given)	inconclusive: 0.794 µM [inhibitor, single point]	
CCCCn1c(Cc2ccccc2)nnc1SCC(=O)Nc1cc(C)on1	inconclusive: 2.31 µM [activator, full curve, poor fit]	
Cc1cccc(NC(=O)CS(=O)(=O)c2cccc3nsnc23)c1	inconclusive: 22.4 µM [inhibitor, single point]	
Cc1cc(S(=O)(=O)NCC(c2ccco2)S(=O)(=O)c2cccs2)ccc1F (stereo not given)		inactive: -0.409% [at 46.1 µM]
COc1ccc(-c2ccc(SCC(=O)c3ccccc3)nn2)cc1OC		inactive: -17.8% [at 46.1 µM]
CCC1CCCCN1C(=O)CSc1nnc(-c2ccco2)o1 (stereo not given)		inactive: 11.3%
Cc1cccc(CNC(=O)c2ccc3nc(Cc4ccccc4)oc3c2)c1		inactive: -6.55% [at 46.1 µM]
CCOc1ccc(C2c3[nH]c4ccccc4c3CCN2C(=O)CSCc2ccc(F)cc2)cc1 (stereo not given)	inconclusive: 35.5 µM [inhibitor, partial curve, poor fit]	
O=c1[nH]c(/C(Cl)=C/c2c(F)cccc2Cl)nc2cc(Cl)ccc12		inactive: -0.58%
COc1cccc(Cn2c(NCc3cccnc3)nc3c2c(=O)n(C)c(=O)n3C)c1	inconclusive: 0.398 µM [inhibitor, full curve]	
O=C1C(=O)N(CCN2CCOCC2)C(c2ccc([N+](=O)[O-])cc2)/C1=C(/O)c1ccc2c(c1)OCO2 (stereo not given)	inconclusive: 35.5 µM [inhibitor, single point]	
C(=NN1CCCCCC1)c1ccc2ccccc2n1	inconclusive: 1.26 µM [inhibitor, full curve, poor fit]	
Cc1ccsc1/C=C1/NC(=O)N(Cc2ccc(F)cc2)C1=O	inconclusive: 6.31 µM [inhibitor, full curve]	
OCc1nc2ccccc2n1CCCOc1ccc(Br)cc1	inconclusive: 3.16 µM [activator, single point]	
Cn1c(=O)c2c(nc(N3CCN(Cc4ccccc4)CC3)n2CCCc2ccccc2)n(C)c1=O	inconclusive: 0.316 µM [inhibitor, full curve, poor fit]	
Cc1ccc2c(c1)N(CCCC(=O)NCc1ccc3c(c1)OCO3)C(=O)CO2		inactive: 0.97%
CCc1ccc(S(=O)(=O)c2cn(Cc3ccccc3F)c3cc(OC)c(OC)cc3c2=O)cc1	inconclusive: 17.8 µM [inhibitor, single point]	

SMILES	Potency	activity change, negative = inhibition
CCOC(=O)c1cnc2c(ccc3ccccc32)c1NCCCN(C)C	inconclusive: 12.6 µM [inhibitor, partial curve]	
O=C(NCCCN1CCOCC1)C(=O)N/N=C/c1ccccc1O		inactive: 0.501%
Cn1c(=O)c2c(nc(N3CCOCC3)n2CC(=O)C23CC4CC(CC(C4)C2)C3)n(C)c1=O	inconclusive: 29.1 µM [inhibitor, single point]	
COCCN(C(=S)Nc1cccc(Cl)c1C)C(C)c1ccco1 (stereo not given)	inconclusive: 12.6 µM [inhibitor, partial curve, poor fit]	
N/C(=N\OC(=O)CCCOc1ccc(Cl)cc1Cl)c1ccccn1		inactive: 8.59%
O=S(=O)(c1ccccc1)N(Cc1nc(-c2ccccc2)no1)C1CCCCC1	inconclusive: 35.5 µM [inhibitor, partial curve, poor fit]	
Cn1c(=O)oc2cc(S(=O)(=O)N3CCCC(C(=O)NCCc4ccccc4)C3)ccc21 (stereo not given)		inactive: -0.249% [at 46.1 µM]
O=C(NCc1ccccc1)Nc1cccn(Cc2ccc(F)cc2)c1=O	inconclusive: 29.1 µM [inhibitor, single point]	
CC1CCN(CCNC(=O)c2ccc(NC(=O)C3CCCO3)cc2)CC1 (stereo not given)		inactive: 2.19%
N#Cc1ccc(OCc2nnc(SCC(=O)N3CCCc4ccccc43)n2-c2ccccc2)cc1	active: 25.9 µM	
Nc1ccccc1OCCOCCOc1ccccc1N	inconclusive: 3.16 µM [inhibitor, partial curve]	
CCOc1ccc(NS(=O)(=O)c2cccc(C(=O)N3CCN(C/C=C/c4ccccc4)CC3)c2)cc1	inconclusive: 35.5 µM [inhibitor, single point]	
O=[N+]([O-])c1ccc(O)c(Nc2ncnc3ccc(Br)cc23)c1	inconclusive: 35.5 µM [inhibitor, partial curve, poor fit]	
COc1cc(OC)c(NC(=O)CN2CCCN(Cc3ccccc3C)S2(=O)=O)cc1Cl		inactive: -6.4% [at 46.1 µM]
Cc1cc(N2CCN(C)CC2)nc2ccc(NC(=S)NCCCN3CCc4ccccc4C3)cc12	inconclusive: 35.5 µM [inhibitor, single point]	
O=C(O)c1ccc(N/N=C/c2ccc3ncccc3c2)cc1	inconclusive: 5.62 µM [inhibitor, full curve, poor fit]	
O=C(NCc1ccccc1)[C@@H]1C[C@H]1[C@@H](NP(=O)(c1ccccc1)c1ccccc1)c1ccccc1	active: 1.84 µM	
COc1ccc(CNC(=O)Nc2ccc3c(c2)N(C)C(=O)c2ccccc2S3)cc1OC		inactive: -15.9% [at 46.1 µM]
CCc1ccc(/C(C)=N/NC(=O)C(O)c2ccccc2)s1 (stereo not given)	inconclusive: 3.98 µM [activator, partial curve]	
CCn1cc(CN2CCCC(CO)(Cc3cccc(Cl)c3)C2)cn1 (stereo not given)		inactive: -3.39%
CC/C(=N\NC(=O)c1ccc(-c2ccccc2)cc1)C12CC3CC(CC(C3)C1)C2	inconclusive: 0.282 µM [inhibitor, full curve, poor fit]	
CCCNC(=O)NCCC12CC3CC(CC(C3)C1)C2	active: 2.51 µM	

A draw from above in order of SMILES length, smallest number first:
SMILES	Potency	activity change, negative = inhibition
NCCCCNCCCN	inconclusive: 6.51 µM [inhibitor, single point]	
CCc1ccc(/C(C)=N/NC(=O)C(O)c2ccccc2)s1 (stereo not given)	inconclusive: 3.98 µM [activator, partial curve]	
COc1cccc(Cn2c(NCc3cccnc3)nc3c2c(=O)n(C)c(=O)n3C)c1	inconclusive: 0.398 µM [inhibitor, full curve]	
